This note sets out measurements from publication PMC12667517, “Gigaxonin Potentiates Antiviral Innate Immune Responses by Targeting cGAS and TREX1” (Advanced Science, 2025).

For assay [1], the target named is T1, endogenous gigaxonin in THP-1 cells (human (endogenous in THP-1)) (UniProt Q9H2C0).
T1 sequence: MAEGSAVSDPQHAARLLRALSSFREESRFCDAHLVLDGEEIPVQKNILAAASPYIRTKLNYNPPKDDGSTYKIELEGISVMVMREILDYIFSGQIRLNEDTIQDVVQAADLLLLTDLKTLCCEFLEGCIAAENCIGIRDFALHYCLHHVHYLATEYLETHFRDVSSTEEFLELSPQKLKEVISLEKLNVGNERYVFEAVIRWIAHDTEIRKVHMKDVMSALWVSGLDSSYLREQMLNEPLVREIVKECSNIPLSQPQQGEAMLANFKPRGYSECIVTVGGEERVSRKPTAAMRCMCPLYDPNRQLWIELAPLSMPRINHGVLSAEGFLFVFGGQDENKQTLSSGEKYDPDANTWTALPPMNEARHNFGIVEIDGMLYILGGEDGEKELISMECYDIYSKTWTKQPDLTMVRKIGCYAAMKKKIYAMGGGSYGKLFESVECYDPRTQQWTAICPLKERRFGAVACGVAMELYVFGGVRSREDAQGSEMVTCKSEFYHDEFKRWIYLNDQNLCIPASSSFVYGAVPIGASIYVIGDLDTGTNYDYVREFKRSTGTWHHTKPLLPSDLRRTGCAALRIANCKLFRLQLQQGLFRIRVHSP
In words: co-IP; endogenous proteins of THP-1 cells infected with HSV-1 (MOI = 1) for the indicated times.

Assay [2] has as its target T1, endogenous gigaxonin in THP-1 cells (human (endogenous in THP-1)). The assay is described as above. This is another data set of the same source.
For assay [3], the target named is T2, Myc-gigaxonin (human) (UniProt Q9H2C0).
T2 sequence: T1 sequence
The experiment in a line: co-IP; HEK293T cells transfected with gigaxonin, TREX1 and increasing doses of HA-cGAS, MG-132 for 6 h.

The target in assay [4] is T2, Myc-gigaxonin (human). In words: co-IP; HEK293T cells transfected with tagged plasmids; NP-40 lysis buffer (150 mM NaCl, 1% NP-40, 20 mM Tris-HCl pH 7.4), Protein G Sepharose 2 h, washes with 0.5 M NaCl; for TREX1 the cells were treated with MG132 for 6 h.

Where two headings read alike, the source gives them in different places. Results are given in words; binding and its absence hold for the method and conditions named. Binding seen in cells or lysates may run through a third protein. Some entries that bind do so weakly or less than the wild type. For some of these results: Sequences can lack the tags named with a protein.

As to “endogenous cGAS in THP-1 cells (from UniProt Q8N884-1 1-522)”, the binding result in assay [1] is “binds”.

B1: endogenous TREX1 in THP-1 cells (protein, UniProt Q9NSU2-3 1-314)
chain: MGSQALPPGPMQTLIFFDMEATGLPFSQPKVTELCLLAVHRCALESPPTSQGPPPTVPPPPRVVDKLSLCVAPGKACSPAASEITGLSTAVLAAHGRQCFDDNLANLLLAFLRRQPQPWCLVAHNGDRYDFPLLQAELAMLGLTSALDGAFCVDSITALKALERASSPSEHGPRKSYSLGSIYTRLYGQSPPDSHTAEGDVLALLSICQWRPQALLRWVDAHARPFGTIRPMYGVTASARTKPRPSAVTTTAHLATTRNTSPSLGESRGTKDLPPVKDPGALSREGLLAPLGLLAILTLAVATLYGLSLATPGE
In the case of B1, the binding result in assay [2] is on record as “binds”.

B2: Flag-TREX1 (protein, UniProt Q9NSU2-3 1-314)
chain: B1 chain
Consider B2, for which the binding entry with Myc-gigaxonin (human) [3] and in the assay with Myc-gigaxonin (human) [4] was “binds” throughout.
